Experimental data published in publication doi:10.1101/2022.03.13.484137.
No constants are given. Whether binding was seen depends on the method and setting. In cells and extracts the contact can be indirect. These calls come from enrichment with a bait or labelling near it, and not all partners need be listed.

Sequences of proteins named here, by UniProt entry; tags and fusion partners are left off.
UniProt P46937: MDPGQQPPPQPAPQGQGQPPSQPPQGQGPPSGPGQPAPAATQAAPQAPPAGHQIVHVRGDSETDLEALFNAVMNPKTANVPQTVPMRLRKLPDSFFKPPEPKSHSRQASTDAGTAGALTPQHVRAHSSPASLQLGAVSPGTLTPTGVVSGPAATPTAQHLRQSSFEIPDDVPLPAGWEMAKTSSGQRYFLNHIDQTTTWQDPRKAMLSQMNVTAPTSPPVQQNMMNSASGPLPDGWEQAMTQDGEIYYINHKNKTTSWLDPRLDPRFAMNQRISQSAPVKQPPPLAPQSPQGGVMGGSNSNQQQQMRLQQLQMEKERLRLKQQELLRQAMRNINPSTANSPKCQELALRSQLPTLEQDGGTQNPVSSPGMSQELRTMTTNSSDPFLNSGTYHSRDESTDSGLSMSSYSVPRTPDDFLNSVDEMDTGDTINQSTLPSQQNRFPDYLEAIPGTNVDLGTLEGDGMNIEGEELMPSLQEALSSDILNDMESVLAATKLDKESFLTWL
UniProt Q9UKB1: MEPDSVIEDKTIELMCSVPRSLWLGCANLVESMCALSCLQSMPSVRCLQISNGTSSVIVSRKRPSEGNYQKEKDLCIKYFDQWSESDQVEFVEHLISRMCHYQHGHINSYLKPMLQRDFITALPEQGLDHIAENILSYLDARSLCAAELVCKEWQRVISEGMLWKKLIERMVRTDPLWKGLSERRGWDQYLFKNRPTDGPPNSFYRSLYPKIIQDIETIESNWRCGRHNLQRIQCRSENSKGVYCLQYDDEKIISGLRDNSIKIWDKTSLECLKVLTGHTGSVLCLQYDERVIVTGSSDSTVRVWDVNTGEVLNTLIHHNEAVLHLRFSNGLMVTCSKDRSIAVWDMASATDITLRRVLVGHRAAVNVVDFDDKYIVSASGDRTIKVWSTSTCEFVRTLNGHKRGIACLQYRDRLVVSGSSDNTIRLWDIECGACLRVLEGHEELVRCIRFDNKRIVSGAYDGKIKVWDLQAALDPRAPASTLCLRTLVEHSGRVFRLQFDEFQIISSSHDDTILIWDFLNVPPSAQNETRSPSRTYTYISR
UniProt Q9Y2J4: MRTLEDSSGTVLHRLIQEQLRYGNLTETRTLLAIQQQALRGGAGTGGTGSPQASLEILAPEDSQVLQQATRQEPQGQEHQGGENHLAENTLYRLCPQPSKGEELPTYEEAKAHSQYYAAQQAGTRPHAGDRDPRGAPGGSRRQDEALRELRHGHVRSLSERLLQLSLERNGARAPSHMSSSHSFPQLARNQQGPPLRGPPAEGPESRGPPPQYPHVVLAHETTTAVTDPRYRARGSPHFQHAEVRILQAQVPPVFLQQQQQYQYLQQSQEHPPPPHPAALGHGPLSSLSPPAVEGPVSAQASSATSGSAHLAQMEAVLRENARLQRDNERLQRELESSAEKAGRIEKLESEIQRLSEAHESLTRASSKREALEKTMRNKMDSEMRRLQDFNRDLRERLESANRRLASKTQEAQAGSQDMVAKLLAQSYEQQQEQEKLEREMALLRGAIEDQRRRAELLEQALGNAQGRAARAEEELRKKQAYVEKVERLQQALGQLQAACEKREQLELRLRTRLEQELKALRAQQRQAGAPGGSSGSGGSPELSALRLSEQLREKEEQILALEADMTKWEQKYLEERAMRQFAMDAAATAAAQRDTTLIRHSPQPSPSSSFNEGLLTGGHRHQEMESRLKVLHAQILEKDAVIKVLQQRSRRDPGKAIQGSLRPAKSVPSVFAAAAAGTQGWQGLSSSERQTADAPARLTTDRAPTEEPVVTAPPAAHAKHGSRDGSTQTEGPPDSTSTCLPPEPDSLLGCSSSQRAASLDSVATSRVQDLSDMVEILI
UniProt P36873: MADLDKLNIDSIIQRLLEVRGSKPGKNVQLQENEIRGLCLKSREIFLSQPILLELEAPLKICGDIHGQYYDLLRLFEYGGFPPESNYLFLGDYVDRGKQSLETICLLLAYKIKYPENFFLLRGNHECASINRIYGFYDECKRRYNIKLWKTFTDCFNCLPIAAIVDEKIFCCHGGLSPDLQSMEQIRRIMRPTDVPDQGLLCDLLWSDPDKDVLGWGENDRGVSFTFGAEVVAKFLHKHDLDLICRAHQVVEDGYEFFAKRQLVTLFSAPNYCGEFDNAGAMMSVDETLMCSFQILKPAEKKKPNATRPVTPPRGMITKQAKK
UniProt P31946: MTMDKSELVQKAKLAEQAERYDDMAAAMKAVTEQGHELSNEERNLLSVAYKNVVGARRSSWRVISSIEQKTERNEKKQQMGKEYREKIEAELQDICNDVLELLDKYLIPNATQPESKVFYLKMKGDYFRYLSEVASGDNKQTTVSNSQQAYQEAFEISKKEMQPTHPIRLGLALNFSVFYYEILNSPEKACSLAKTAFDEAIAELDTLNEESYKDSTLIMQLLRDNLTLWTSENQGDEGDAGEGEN
UniProt A6NKD9: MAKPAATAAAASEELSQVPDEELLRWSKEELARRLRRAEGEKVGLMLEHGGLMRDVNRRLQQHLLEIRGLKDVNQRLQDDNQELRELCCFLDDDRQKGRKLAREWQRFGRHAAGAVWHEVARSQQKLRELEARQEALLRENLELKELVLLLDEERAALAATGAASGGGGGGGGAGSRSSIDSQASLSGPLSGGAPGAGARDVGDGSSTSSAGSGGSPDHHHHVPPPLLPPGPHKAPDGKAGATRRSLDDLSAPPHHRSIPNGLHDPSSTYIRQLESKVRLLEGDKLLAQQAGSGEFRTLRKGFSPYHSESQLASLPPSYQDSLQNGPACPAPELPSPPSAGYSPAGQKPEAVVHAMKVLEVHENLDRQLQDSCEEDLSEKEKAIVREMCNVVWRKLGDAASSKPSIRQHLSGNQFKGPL
UniProt P62140: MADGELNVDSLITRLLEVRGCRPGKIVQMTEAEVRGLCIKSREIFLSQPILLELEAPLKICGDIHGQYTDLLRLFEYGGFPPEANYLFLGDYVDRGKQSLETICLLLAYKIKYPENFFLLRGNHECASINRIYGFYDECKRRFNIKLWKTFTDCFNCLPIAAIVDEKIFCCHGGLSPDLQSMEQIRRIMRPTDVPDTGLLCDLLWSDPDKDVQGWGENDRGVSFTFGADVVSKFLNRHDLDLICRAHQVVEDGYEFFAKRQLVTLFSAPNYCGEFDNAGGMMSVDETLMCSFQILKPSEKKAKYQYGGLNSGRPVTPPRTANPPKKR

Tests used:
[1] = target: N terminal Strep-HA-tagged YAP1 (human) (UniProt P46937); assay: affinity purification with mass spectrometry
[2] = target: N terminal Strep-HA-tagged YAP1 (human) (UniProt P46937); assay: affinity purification with mass spectrometry + native gel or EMSA

| Substance | binding [1] | binding [2] |
| --- | --- | --- |
| FBXW11 (from UniProt Q9UKB1 1-542) | binds |  |
| AMOTL2 (from UniProt Q9Y2J4 1-779) |  | binds |
| PPP1CC (from UniProt P36873 1-323) | binds |  |
| 1433B (from UniProt P31946 1-246) | binds |  |
| CCDC85C (from UniProt A6NKD9 1-419) | binds |  |
| PPP1CB (from UniProt P62140 1-327) | binds |  |
